Results published in patent US12060409B2, “Short cyclic peptides for the treatment of Graves' disease” (priority 2018, dated 2024).
Part of at least one peptide drawing is inferred or uncertain, most often the ends. Peptide text beside a SMILES is read from it.

Test system: Ad-TSHR-immunized mice
Assay: Long-term mouse model of Graves' disease: peptide therapy in Ad-TSHR-immunized mice
Type: in vivo, BALB/c mice
Conditions: 4-weekly IV, 0.1 mg/kg peptide 19, 0.3 mg/kg peptide 836 13mer; for Retro-orbital fibrosis (digitized image analysis of orbital sections) / Thyroid sizes (thyroid volumes) from serial sections: vs Graves' no therapy; for Heart rate (ECG): vs vehicle-treated hyperthyroid group; for Serum thyroxin (T4) levels: after start of therapy (week 11); for Thyroid sizes (thyroid volumes) from serial sections: end of experiment

CC(C)C[C@@H]1NC(=O)[C@H](Cc2ccc(O)cc2)NC(=O)[C@H](C(C)C)NC(=O)[C@H](C)NC(=O)[C@H](CC(=O)O)NC(=O)[C@H](CC(C)C)NC(=O)[C@H](CCCCN)NC(=O)[C@H]([C@@H](C)O)NC(=O)CNC(=O)[C@H](CCCCN)NC(=O)[C@H](CC(N)=O)NC(=O)[C@H](CCCCN)NC(=O)[C@H](CC(N)=O)NC1=O [peptide 836 13mer, TKLDAVYLNKNKG] (HELM PEPTIDE1{A.V.Y.L.N.K.N.K.G.T.K.L.D}$PEPTIDE1,PEPTIDE1,1:R1-13:R2$$$V2.0)
Retro-orbital fibrosis (digitized image analysis of orbital sections): markedly reduced | Heart rate (ECG): trends towards reduced heart rates which did not reach statistical significance | Serum thyroxin (T4) levels: a trend which did not reach statistical significance | Thyroid sizes (thyroid volumes) from serial sections: trends towards reduced sizes which did not reach statistical significance

CC(C)[C@@H]1NC(=O)[C@H](CCCNC(=N)N)NC(=O)[C@H](Cc2ccccc2)NC(=O)[C@H](CC(=O)O)NC(=O)[C@H](CCC(=O)O)NC(=O)[C@H](CCC(=O)O)NC(=O)[C@H](CCC(N)=O)NC(=O)[C@H](Cc2c[nH]cn2)NC(=O)[C@@H](N)CSSC[C@@H](C(=O)O)NC(=O)[C@H]([C@@H](C)O)NC1=O [peptide 19, CHQEEDFRVTC] (HELM PEPTIDE1{C.H.Q.E.E.D.F.R.V.T.C}$PEPTIDE1,PEPTIDE1,1:R3-11:R3$$$V2.0)
Retro-orbital fibrosis (digitized image analysis of orbital sections): a trend was observed in the peptide 19-treated group which did not reach statistical significance | Heart rate (ECG): significantly decreased resting heart rates at later time points | Serum thyroxin (T4) levels: reverted to normal values | Thyroid sizes (thyroid volumes) from serial sections: significantly decreased thyroid sizes
